Among the data in article PMC13385793 are binding values, retold here.

Sequences of proteins named here, by UniProt entry; tags and fusion partners are left off. Residues count along the entry.
UniProt O15525: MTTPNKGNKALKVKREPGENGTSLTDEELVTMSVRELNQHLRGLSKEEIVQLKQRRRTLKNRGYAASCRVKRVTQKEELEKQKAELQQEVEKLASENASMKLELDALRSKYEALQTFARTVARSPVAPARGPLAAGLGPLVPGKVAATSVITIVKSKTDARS
UniProt Q9BYV9: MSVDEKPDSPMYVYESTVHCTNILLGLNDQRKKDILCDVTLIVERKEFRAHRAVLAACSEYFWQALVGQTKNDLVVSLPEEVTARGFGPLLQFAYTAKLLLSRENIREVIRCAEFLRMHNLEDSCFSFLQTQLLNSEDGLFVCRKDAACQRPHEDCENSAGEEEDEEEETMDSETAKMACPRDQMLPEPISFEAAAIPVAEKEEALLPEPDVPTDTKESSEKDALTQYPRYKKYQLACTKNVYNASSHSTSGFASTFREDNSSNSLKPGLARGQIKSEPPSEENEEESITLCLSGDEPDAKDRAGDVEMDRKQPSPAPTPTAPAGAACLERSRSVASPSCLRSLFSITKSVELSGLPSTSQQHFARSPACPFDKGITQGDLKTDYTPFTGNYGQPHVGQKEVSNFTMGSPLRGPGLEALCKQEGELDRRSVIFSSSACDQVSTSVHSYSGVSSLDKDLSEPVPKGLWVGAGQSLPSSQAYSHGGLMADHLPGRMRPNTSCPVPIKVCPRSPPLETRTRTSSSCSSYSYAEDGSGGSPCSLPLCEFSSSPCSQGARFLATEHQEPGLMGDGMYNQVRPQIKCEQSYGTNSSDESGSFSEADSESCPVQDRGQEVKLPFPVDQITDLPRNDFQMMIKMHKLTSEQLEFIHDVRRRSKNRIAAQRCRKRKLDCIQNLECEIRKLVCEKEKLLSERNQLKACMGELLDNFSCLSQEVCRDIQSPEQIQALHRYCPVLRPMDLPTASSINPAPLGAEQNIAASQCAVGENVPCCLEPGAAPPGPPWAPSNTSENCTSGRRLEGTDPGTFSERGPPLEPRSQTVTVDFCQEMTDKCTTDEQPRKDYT
UniProt Q9ULX9: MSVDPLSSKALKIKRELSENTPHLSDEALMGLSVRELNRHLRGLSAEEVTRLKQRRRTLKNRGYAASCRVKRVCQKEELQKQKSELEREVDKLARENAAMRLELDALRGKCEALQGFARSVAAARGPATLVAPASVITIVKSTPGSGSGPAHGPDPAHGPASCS
UniProt Q14494, residues 104-772: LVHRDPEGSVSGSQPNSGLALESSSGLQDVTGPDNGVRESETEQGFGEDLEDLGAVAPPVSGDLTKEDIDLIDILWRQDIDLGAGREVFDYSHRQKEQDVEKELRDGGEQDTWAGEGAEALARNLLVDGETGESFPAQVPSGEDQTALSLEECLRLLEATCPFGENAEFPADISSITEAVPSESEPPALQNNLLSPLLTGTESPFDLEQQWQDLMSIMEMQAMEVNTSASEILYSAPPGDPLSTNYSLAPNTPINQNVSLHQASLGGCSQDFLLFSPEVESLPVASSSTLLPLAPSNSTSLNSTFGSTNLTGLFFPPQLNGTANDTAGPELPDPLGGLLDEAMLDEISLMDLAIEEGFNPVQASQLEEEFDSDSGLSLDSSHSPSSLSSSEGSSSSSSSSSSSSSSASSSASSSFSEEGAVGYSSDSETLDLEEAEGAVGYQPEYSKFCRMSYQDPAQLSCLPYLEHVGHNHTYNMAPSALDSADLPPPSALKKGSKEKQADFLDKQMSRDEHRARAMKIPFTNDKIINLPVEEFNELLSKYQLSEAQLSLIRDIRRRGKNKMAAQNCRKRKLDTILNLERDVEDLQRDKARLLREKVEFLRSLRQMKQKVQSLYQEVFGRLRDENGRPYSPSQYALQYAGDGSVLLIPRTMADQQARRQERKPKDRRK

The test concerns the target N-terminal TurboID-MAFG fusion (human) (UniProt O15525). As to the kind of experiment: proximity labelling; TurboID-MAFG versus TurboID-NLS control in WM164 cells, 50 µM biotin for 10 min at 37 °C; RIPA lysate on Streptavidin Sepharose beads, on-bead digestion, label-free LC-MS/MS, n = 3 each.

No constants are given. Whether binding was seen depends on the method and setting. In cells and extracts the contact can be indirect. A yes stands for co-enrichment or nearness to the bait. Other partners may have been found.

On to “BACH2, endogenous (from UniProt Q9BYV9 1-841)”, for which the binding result is “binds”. “MAFF, endogenous (from UniProt Q9ULX9 1-164)”: the binding entry is on record as “binds”. With “NRF1, endogenous (from UniProt Q14494 104-772)”, the binding entry is “binds”.
